Results deposited as PubChem BioAssay AID1159578 (Peter MacCallum Cancer Centre, 2015)

Aim: 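Knock-downs that alter how fast lymphatic endothelial cells migrate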 (primary screen)
Cell system: human lymphatic endothelial cells
Knock-down reagent: siRNA pool against human genes, 40 nM
Time to read-out: 48 h after transfection
Measured: 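Cells stained with dye and imaged after a scratch; covered wound area and nuclei counted, duplicates averaged, migration set against mock wells and turned into a robust z-score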
Direction: migration robust z-score: higher = faster migration into the scratch; migration relative to mock: higher = more scratch area covered than mock; nuclei per well: higher = more cells in the well
Active means: 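Pools averaging fewer than 3300 nuclei are never called; remaining pools count as changed when migration robust z lies outside -2 to 2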
Meaning of the calls: active = migration changed; inactive = no migration change, or too few cells
The whole screen tested about 18,000 reagents; this is an unselected part. About 1,030 of them (5.7%) were called active. 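Inactive calls also include pools with fewer than 3300 nuclei, whose migration was not assessed.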 Raw values are not corrected between plates.

gene symbol | migration robust z-score | migration class with cell-count check | migration relative to mock | nuclei per well, duplicate mean | activity call
COMMD6 (GeneID 170622) | 0.04 | migration z between -2 and 2; enough cells | 0.9 | 5716 | inactive
CCDC136 (GeneID 64753) | -0.49 | migration z between -2 and 2; enough cells | 0.76 | 5409 | inactive
CGREF1 (GeneID 10669) | -1.52 | migration z between -2 and 2; enough cells | 0.5 | 5814 | inactive
VWA5B1 (GeneID 127731) | 0.28 | migration z between -2 and 2; enough cells | 0.96 | 6712 | inactive
LINC01465 (GeneID 283416) | -3.38 | under 3300 nuclei; migration not judged | 0 | 2056 | inactive
OR1L6 (GeneID 392390) | -1.44 | migration z between -2 and 2; enough cells | 0.51 | 5414 | inactive
EYA3 (GeneID 2140) | 0.73 | migration z between -2 and 2; enough cells | 0.94 | 5646 | inactive
AQP4 (GeneID 361) | 0.78 | migration z between -2 and 2; enough cells | 0.96 | 6384 | inactive
MTFR1 (GeneID 9650) | -0.36 | migration z between -2 and 2; enough cells | 0.8 | 6418 | inactive
BPIFA1 (GeneID 51297) | 1.17 | migration z between -2 and 2; enough cells | 1.19 | 5204 | inactive
GABBR2 (GeneID 9568) | -0.46 | migration z between -2 and 2; enough cells | 0.72 | 4846 | inactive
GJB7 (GeneID 375519) | -0.14 | migration z between -2 and 2; enough cells | 0.84 | 5660 | inactive
GGTLC2 (GeneID 91227) | -0.91 | migration z between -2 and 2; enough cells | 0.63 | 5400 | inactive
ZNF470 (GeneID 388566) | 0.28 | migration z between -2 and 2; enough cells | 0.96 | 5277 | inactive
FYB1 (GeneID 2533) | 0.44 | migration z between -2 and 2; enough cells | 1 | 6626 | inactive
ZNF551 (GeneID 90233) | -0.8 | migration z between -2 and 2; enough cells | 0.68 | 4584 | inactive
PRR4 (GeneID 11272) | -0.24 | migration z between -2 and 2; enough cells | 0.82 | 5127 | inactive
WNT8B (GeneID 7479) | -0.52 | migration z between -2 and 2; enough cells | 0.76 | 4279 | inactive
CDH9 (GeneID 1007) | -0.8 | migration z between -2 and 2; enough cells | 0.65 | 4764 | inactive
RPL36AL (GeneID 6166) | 1.77 | migration z between -2 and 2; enough cells | 1.35 | 5745 | inactive
TBC1D22A (GeneID 25771) | 0.72 | migration z between -2 and 2; enough cells | 1.07 | 5222 | inactive
HRH3 (GeneID 11255) | 0.72 | migration z between -2 and 2; enough cells | 0.94 | 6296 | inactive
MEIS2 (GeneID 4212) | -0.31 | migration z between -2 and 2; enough cells | 0.74 | 4660 | inactive
SLC16A11 (GeneID 162515) | 0.44 | migration z between -2 and 2; enough cells | 0.89 | 5278 | inactive
EBF3 (GeneID 253738) | 1.88 | migration z between -2 and 2; enough cells | 1.38 | 6354 | inactive
FKBP11 (GeneID 51303) | -0.91 | migration z between -2 and 2; enough cells | 0.63 | 5817 | inactive
PDE11A (GeneID 50940) | 0.05 | migration z between -2 and 2; enough cells | 0.82 | 6066 | inactive
WFDC5 (GeneID 149708) | 1.43 | migration z between -2 and 2; enough cells | 1.25 | 6291 | inactive
PCDH8 (GeneID 5100) | 1.3 | migration z between -2 and 2; enough cells | 1.22 | 6704 | inactive
GCM2 (GeneID 9247) | 1.82 | migration z between -2 and 2; enough cells | 1.15 | 6089 | inactive
DDX20 (GeneID 11218) | 0.24 | migration z between -2 and 2; enough cells | 0.85 | 6155 | inactive
RIC3 (GeneID 79608) | 0.71 | migration z between -2 and 2; enough cells | 1.07 | 5620 | inactive
RPS23 (GeneID 6228) | -2.28 | migration z below -2; enough cells | 0.36 | 4530 | active
TBL1X (GeneID 6907) | 0.57 | migration z between -2 and 2; enough cells | 1.03 | 5162 | inactive
DYDC1 (GeneID 143241) | 0.77 | migration z between -2 and 2; enough cells | 1.08 | 7113 | inactive
LSM6 (GeneID 11157) | 0.12 | migration z between -2 and 2; enough cells | 0.92 | 4892 | inactive
C1orf116 (GeneID 79098) | 0.18 | migration z between -2 and 2; enough cells | 0.93 | 5493 | inactive
UPF3A (GeneID 65110) | 2.67 | migration z above 2; enough cells | 1.58 | 6618 | active
SKA1 (GeneID 220134) | 0.36 | migration z between -2 and 2; enough cells | 0.98 | 6132 | inactive
RPL7L1 (GeneID 285855) | -1.67 | migration z between -2 and 2; enough cells | 0.45 | 4670 | inactive
SYCP2 (GeneID 10388) | 1.15 | migration z between -2 and 2; enough cells | 1.19 | 5954 | inactive
AP5M1 (GeneID 55745) | 0.56 | migration z between -2 and 2; enough cells | 1.03 | 5920 | inactive
YWHAH (GeneID 7533) | 0.02 | migration z between -2 and 2; enough cells | 0.81 | 5125 | inactive
PALB2 (GeneID 79728) | 0.34 | under 3300 nuclei; migration not judged | 0.98 | 3167 | inactive
SYT14 (GeneID 255928) | -0.6 | migration z between -2 and 2; enough cells | 0.73 | 4946 | inactive

Sorted by “migration robust z-score” (highest first): 5 of the entries above.
gene symbol | migration robust z-score | migration class with cell-count check | migration relative to mock | nuclei per well, duplicate mean | activity call
FYB1 (GeneID 2533) | 0.44 | migration z between -2 and 2; enough cells | 1 | 6626 | inactive
ZNF470 (GeneID 388566) | 0.28 | migration z between -2 and 2; enough cells | 0.96 | 5277 | inactive
PRR4 (GeneID 11272) | -0.24 | migration z between -2 and 2; enough cells | 0.82 | 5127 | inactive
ZNF551 (GeneID 90233) | -0.8 | migration z between -2 and 2; enough cells | 0.68 | 4584 | inactive
GGTLC2 (GeneID 91227) | -0.91 | migration z between -2 and 2; enough cells | 0.63 | 5400 | inactive

Further entries follow:
gene symbol | migration robust z-score | migration class with cell-count check | migration relative to mock | nuclei per well, duplicate mean | activity call
SLC46A2 (GeneID 57864) | -0.24 | migration z between -2 and 2; enough cells | 0.76 | 5325 | inactive
SERF1A (GeneID 8293) | -1.38 | migration z between -2 and 2; enough cells | 0.53 | 5820 | inactive
MBD4 (GeneID 8930) | -1.82 | migration z between -2 and 2; enough cells | 0.46 | 5419 | inactive
DIAPH3 (GeneID 81624) | 0.6 | migration z between -2 and 2; enough cells | 0.92 | 5848 | inactive
CD276 (GeneID 80381) | -2.17 | migration z below -2; enough cells | 0.32 | 5004 | active
CUX1 (GeneID 1523) | 0.46 | migration z between -2 and 2; enough cells | 1 | 7581 | inactive
SLC1A7 (GeneID 6512) | -0.1 | migration z between -2 and 2; enough cells | 0.78 | 4903 | inactive
CT45A5 (GeneID 441521) | 0.66 | migration z between -2 and 2; enough cells | 1.05 | 6090 | inactive
CAV3 (GeneID 859) | 0.78 | migration z between -2 and 2; enough cells | 0.96 | 4679 | inactive
C18orf32 (GeneID 497661) | 3.04 | migration z above 2; enough cells | 1.67 | 5854 | active
PPP1R36 (GeneID 145376) | 0.29 | migration z between -2 and 2; enough cells | 0.96 | 8166 | inactive
HSPA12A (GeneID 259217) | 1.15 | migration z between -2 and 2; enough cells | 1.19 | 6240 | inactive
STEAP2 (GeneID 261729) | -0.76 | migration z between -2 and 2; enough cells | 0.66 | 4450 | inactive
OR52N5 (GeneID 390075) | 0.16 | migration z between -2 and 2; enough cells | 0.92 | 5880 | inactive
GTF2IRD2B (GeneID 389524) | -0.66 | migration z between -2 and 2; enough cells | 0.71 | 5396 | inactive
ZNF598 (GeneID 90850) | 1.91 | migration z between -2 and 2; enough cells | 1.38 | 6980 | inactive
PPID (GeneID 5481) | 0 | migration z between -2 and 2; enough cells | 0.8 | 4758 | inactive
SMG1 (GeneID 23049) | 0.16 | migration z between -2 and 2; enough cells | 0.84 | 4842 | inactive
ANKRD28 (GeneID 23243) | 0.71 | migration z between -2 and 2; enough cells | 1.07 | 5214 | inactive
IBSP (GeneID 3381) | -1.01 | under 3300 nuclei; migration not judged | 0.61 | 2884 | inactive
USP40 (GeneID 55230) | -1.22 | migration z between -2 and 2; enough cells | 0.57 | 4202 | inactive
BRI3BP (GeneID 140707) | 0.8 | migration z between -2 and 2; enough cells | 1.09 | 7176 | inactive
TMEM243 (GeneID 79161) | -0.4 | migration z between -2 and 2; enough cells | 0.78 | 5832 | inactive
DNM1L (GeneID 10059) | -2.46 | migration z below -2; enough cells | 0.33 | 4011 | active
ZNF773 (GeneID 374928) | 1.73 | migration z between -2 and 2; enough cells | 1.34 | 7318 | inactive
LDLRAD4 (GeneID 753) | -0.62 | migration z between -2 and 2; enough cells | 0.72 | 5834 | inactive
SULT1E1 (GeneID 6783) | 1.14 | migration z between -2 and 2; enough cells | 1.02 | 5053 | inactive
LRPPRC (GeneID 10128) | -2.37 | migration z below -2; enough cells | 0.27 | 4644 | active
